Source: patent US11452717B2, “Small molecule activators of nicotinamide phosphoribosyltransferase (NAMPT) and uses thereof” (Sanford Burnham Prebys Medical Discovery Institute, priority 2017, dated 2022)

Sequences of proteins named here, by UniProt entry; tags and fusion partners are left off.
UniProt P43490, whole entry: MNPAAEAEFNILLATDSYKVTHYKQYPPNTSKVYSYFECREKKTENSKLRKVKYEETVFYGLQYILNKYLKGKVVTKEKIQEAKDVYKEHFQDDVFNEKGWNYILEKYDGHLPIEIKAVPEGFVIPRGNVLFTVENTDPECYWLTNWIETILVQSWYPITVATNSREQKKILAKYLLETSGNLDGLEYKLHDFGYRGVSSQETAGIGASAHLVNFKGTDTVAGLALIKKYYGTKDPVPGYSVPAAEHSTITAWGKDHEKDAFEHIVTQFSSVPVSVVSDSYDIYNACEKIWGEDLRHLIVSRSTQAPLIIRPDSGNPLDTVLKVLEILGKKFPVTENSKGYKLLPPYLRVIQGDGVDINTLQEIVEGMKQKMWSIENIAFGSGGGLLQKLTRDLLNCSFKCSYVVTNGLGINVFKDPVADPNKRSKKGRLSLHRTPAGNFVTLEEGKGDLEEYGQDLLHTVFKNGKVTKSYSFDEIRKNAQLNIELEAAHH

Target: NAMPT enzyme (Homo sapiens (Human), UniProt P43490)
Experiment: Enzyme Assay and NMN Detection (NAMPT reaction, fluorescence detection of NMN)
Type: biochemical
Conditions: Table B-3; NAMPT activation, NMN formation

With `O=C(NCc1ccccc1)Nc1cccc(C(=O)O)c1` the pEC50 was under 4.70.

pEC50: −log10 of the molar value. The structures given here were assigned with low confidence; some may be wrong.
